Experimental data as given in patent US20090214663A1 (published 2009).
Results are given in words; binding and its absence hold for the method and conditions named. Some results given as binding are weak or reduced against the parent protein; the word gives no strength.

Chains of the proteins cited; added tags and fusions are not shown. Residues count along the entry.
UniProt Q09143: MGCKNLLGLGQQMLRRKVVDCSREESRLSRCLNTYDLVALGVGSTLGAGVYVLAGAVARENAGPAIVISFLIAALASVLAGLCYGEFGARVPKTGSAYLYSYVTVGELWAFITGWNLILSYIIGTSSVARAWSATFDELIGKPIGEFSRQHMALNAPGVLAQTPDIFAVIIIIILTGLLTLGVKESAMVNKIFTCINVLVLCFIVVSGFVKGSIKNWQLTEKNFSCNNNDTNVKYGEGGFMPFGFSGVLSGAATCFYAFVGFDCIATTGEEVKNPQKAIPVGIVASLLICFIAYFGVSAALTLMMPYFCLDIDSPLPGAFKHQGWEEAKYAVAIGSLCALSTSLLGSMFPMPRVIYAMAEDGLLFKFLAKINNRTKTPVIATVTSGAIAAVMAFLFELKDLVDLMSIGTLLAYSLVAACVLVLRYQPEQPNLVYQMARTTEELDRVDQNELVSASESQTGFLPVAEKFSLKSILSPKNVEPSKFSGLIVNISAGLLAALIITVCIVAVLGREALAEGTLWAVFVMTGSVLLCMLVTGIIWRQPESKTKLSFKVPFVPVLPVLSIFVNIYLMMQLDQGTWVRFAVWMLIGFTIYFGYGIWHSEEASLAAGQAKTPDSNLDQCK
UniProt P03385, residues 34-649: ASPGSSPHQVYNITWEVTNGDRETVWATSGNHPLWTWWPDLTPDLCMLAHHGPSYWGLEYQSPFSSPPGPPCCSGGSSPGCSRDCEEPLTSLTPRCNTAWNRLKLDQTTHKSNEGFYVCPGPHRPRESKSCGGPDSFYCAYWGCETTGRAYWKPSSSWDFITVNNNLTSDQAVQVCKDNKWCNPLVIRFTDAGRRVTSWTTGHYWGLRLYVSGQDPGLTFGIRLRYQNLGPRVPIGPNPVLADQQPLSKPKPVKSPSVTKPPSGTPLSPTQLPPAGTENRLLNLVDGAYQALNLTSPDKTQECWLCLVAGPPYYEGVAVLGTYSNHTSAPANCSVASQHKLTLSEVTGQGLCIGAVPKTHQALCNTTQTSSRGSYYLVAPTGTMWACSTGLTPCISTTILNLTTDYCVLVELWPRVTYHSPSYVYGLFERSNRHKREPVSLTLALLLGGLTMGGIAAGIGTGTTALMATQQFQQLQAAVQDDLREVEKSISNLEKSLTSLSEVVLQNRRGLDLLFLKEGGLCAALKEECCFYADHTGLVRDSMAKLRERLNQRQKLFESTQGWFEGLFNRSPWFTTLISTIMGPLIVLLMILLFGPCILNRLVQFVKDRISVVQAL

Assays:
[1] = target: red fluorescent protein (mStrawberry)-tagged mCAT-1 receptor expressed on cells (mouse) (UniProt Q09143); experiment: confocal microscopy, blue fluorescent Mo-NP on cells expressing mStrawberry-tagged mCAT-1 and GFP-caveolin
[2] = target: mCAT-1 receptor expressed on HEK 293 cells (stable cell line) (mouse) (UniProt Q09143); experiment: fluorescence microscopy of Mo-NP on HEK 293 cells with or without mCAT-1

Moloney murine leukemia virus (Mo-MLV) envelope protein, in virus membranes coated onto 100 nm carboxylate-modified fluorescent nanoparticles (Mo-NP) (from UniProt P03385 34-649)
binding [1]: binds | binding [2]: binds
